Further values from the same series stand in other lists.
Legend:
Assay type in all cases: cell-based
Details in all cases: U-87MG ATCC
[1] = Inhibition of RTK/PI3K/AKT/mTOR signaling in human U87 cells assessed as down regulation of RECQL gene expression at cytotoxic IC50 measured after 48 hrs relative to control
[2] = Inhibition of RTK/PI3K/AKT/mTOR signaling in human U87 cells assessed as up regulation of KRT86 gene expression at cytotoxic IC50 measured after 48 hrs relative to control
[3] = Inhibition of RTK/PI3K/AKT/mTOR signaling in human U87 cells assessed as down regulation of ZNF333 gene expression at cytotoxic IC50 measured after 48 hrs relative to control
[4] = Inhibition of RTK/PI3K/AKT/mTOR signaling in human U87 cells assessed as up regulation of SLC2A3 gene expression at cytotoxic IC50 measured after 48 hrs relative to control
[5] = Inhibition of RTK/PI3K/AKT/mTOR signaling in human U87 cells assessed as down regulation of POLR3C gene expression at cytotoxic IC50 measured after 48 hrs relative to control
[6] = Inhibition of RTK/PI3K/AKT/mTOR signaling in human U87 cells assessed as down regulation of CEP85L gene expression at cytotoxic IC50 measured after 48 hrs relative to control
[7] = Inhibition of RTK/PI3K/AKT/mTOR signaling in human U87 cells assessed as up regulation of AKT serine/threonine kinase 2 gene expression at cytotoxic IC50 measured after 48 hrs relative to control
[8] = Inhibition of RTK/PI3K/AKT/mTOR signaling in human U87 cells assessed as down regulation of SLC37A1 gene expression at cytotoxic IC50 measured after 48 hrs relative to control
[9] = Inhibition of RTK/PI3K/AKT/mTOR signaling in human U87 cells assessed as down regulation of FAM219A gene expression at cytotoxic IC50 measured after 48 hrs relative to control
[10] = Inhibition of RTK/PI3K/AKT/mTOR signaling in human U87 cells assessed as down regulation of HMGN2 gene expression at cytotoxic IC50 measured after 48 hrs relative to control
[11] = Inhibition of RTK/PI3K/AKT/mTOR signaling in human U87 cells assessed as down regulation of KLC2 gene expression at cytotoxic IC50 measured after 48 hrs relative to control
[12] = Inhibition of RTK/PI3K/AKT/mTOR signaling in human U87 cells assessed as up regulation of fibronectin type III and SPRY domain containing 1 gene expression at cytotoxic IC50 measured after 48 hrs relative to control
[13] = Inhibition of RTK/PI3K/AKT/mTOR signaling in human U87 cells assessed as down regulation of OSGIN2 gene expression at cytotoxic IC50 measured after 48 hrs relative to control
[14] = Inhibition of RTK/PI3K/AKT/mTOR signaling in human U87 cells assessed as down regulation of VCP gene expression at cytotoxic IC50 measured after 48 hrs relative to control
[15] = Inhibition of RTK/PI3K/AKT/mTOR signaling in human U87 cells assessed as up regulation of PLIN3 gene expression at cytotoxic IC50 measured after 48 hrs relative to control
[16] = Inhibition of RTK/PI3K/AKT/mTOR signaling in human U87 cells assessed as up regulation of calcium voltage-gated channel subunit alpha1 H gene expression at cytotoxic IC50 measured after 48 hrs relative to control
[17] = Inhibition of RTK/PI3K/AKT/mTOR signaling in human U87 cells assessed as down regulation of ATP6V1E1 gene expression at cytotoxic IC50 measured after 48 hrs relative to control
[18] = Inhibition of RTK/PI3K/AKT/mTOR signaling in human U87 cells assessed as down regulation of TMEM106B gene expression at cytotoxic IC50 measured after 48 hrs relative to control
[19] = Inhibition of RTK/PI3K/AKT/mTOR signaling in human U87 cells assessed as down regulation of APLP2 gene expression at cytotoxic IC50 measured after 48 hrs relative to control
[20] = Inhibition of RTK/PI3K/AKT/mTOR signaling in human U87 cells assessed as down regulation of NAP1L5 gene expression at cytotoxic IC50 measured after 48 hrs relative to control
[21] = Inhibition of RTK/PI3K/AKT/mTOR signaling in human U87 cells assessed as down regulation of TRIM35 gene expression at cytotoxic IC50 measured after 48 hrs relative to control
[22] = Inhibition of RTK/PI3K/AKT/mTOR signaling in human U87 cells assessed as up regulation of PTPDC1 gene expression at cytotoxic IC50 measured after 48 hrs relative to control
[23] = Inhibition of RTK/PI3K/AKT/mTOR signaling in human U87 cells assessed as up regulation of PAN2 poly(A) specific ribonuclease subunit gene expression at cytotoxic IC50 measured after 48 hrs relative to control
[24] = Inhibition of RTK/PI3K/AKT/mTOR signaling in human U87 cells assessed as down regulation of RINT1 gene expression at cytotoxic IC50 measured after 48 hrs relative to control
[25] = Inhibition of RTK/PI3K/AKT/mTOR signaling in human U87 cells assessed as up regulation of ATP2B1 gene expression at cytotoxic IC50 measured after 48 hrs relative to control
[26] = Inhibition of RTK/PI3K/AKT/mTOR signaling in human U87 cells assessed as down regulation of CIDECP gene expression at cytotoxic IC50 measured after 48 hrs relative to control
[27] = Inhibition of RTK/PI3K/AKT/mTOR signaling in human U87 cells assessed as up regulation of Rap guanine nucleotide exchange factor like 1 gene expression at cytotoxic IC50 measured after 48 hrs relative to control
[28] = Inhibition of RTK/PI3K/AKT/mTOR signaling in human U87 cells assessed as down regulation of UQCRQ gene expression at cytotoxic IC50 measured after 48 hrs relative to control
[29] = Inhibition of RTK/PI3K/AKT/mTOR signaling in human U87 cells assessed as down regulation of GCLM gene expression at cytotoxic IC50 measured after 48 hrs relative to control
[30] = Inhibition of RTK/PI3K/AKT/mTOR signaling in human U87 cells assessed as up regulation of hypoxia up-regulated 1 gene expression at cytotoxic IC50 measured after 48 hrs relative to control
[31] = Inhibition of RTK/PI3K/AKT/mTOR signaling in human U87 cells assessed as up regulation of SERPINA1 gene expression at cytotoxic IC50 measured after 48 hrs relative to control
[32] = Inhibition of RTK/PI3K/AKT/mTOR signaling in human U87 cells assessed as up regulation of transducin beta like 1X-linked gene expression at cytotoxic IC50 measured after 48 hrs relative to control

Work on `CC(=O)C(=NNc1ccccc1C#N)C(C)=O` yielded a log2FC [1] of -1.88, a log2FC [2] of 3.1 and a log2FC [3] of -0.737. It also gave a log2FC [4] of 3.09, a log2FC [5] of -0.921 and a log2FC [6] of -1.16. For the same compound, the log2FC [7] was 0.727, the log2FC [8] was -0.907 and the log2FC [9] was -1.02. For the same compound, the log2FC [10] was -0.97, the log2FC [11] was -0.576 and the log2FC [12] was 0.958. It also gave a log2FC [13] of -1.05, a log2FC [14] of -0.539 and a log2FC [15] of 0.53. The log2FC [16] was 0.962, the log2FC [17] was -0.643 and the log2FC [18] was -0.742. It also gave a log2FC [19] of -0.639, a log2FC [20] of -2.21 and a log2FC [21] of -0.798. It also gave a log2FC [22] of 1.73, a log2FC [23] of 0.963 and a log2FC [24] of -1.14. It also gave a log2FC [25] of 0.423, a log2FC [26] of -2.04 and a log2FC [27] of 1.21. For the same compound, the log2FC [28] was -0.665, the log2FC [29] was -1.19 and the log2FC [30] was 0.667. It also gave a log2FC [31] of 1.96 and a log2FC [32] of 0.986.

Source: ChEMBL document CHEMBL4316593 (Eur J Med Chem, 2019)
